# From the supplement of paper PMC8728848
# This is one part of the list.
# B1: GS7807G-bfa-506-18-506 (Bacteroides fragilis) (protein)
# chain: ASCDKFDEINTDPDATTKVTSSLLATGLLLDITSSSASKSFIYDELLAKQMAWGESMEDYQYNVFGRSGFGGYTTLINAQKMVESVSDDNVNAYDGLAHFIKAYKIFYMSMEMGDLPYEEALQGELGLVRPKYNTQKEVMNFILSDLETAYELFSTAKDFDGDPILGGSISKWKKATTAFQLKVLMHLSKKESDADLKVKERFARIVASGSLMESNEDNLQMKYADKANTVYPFHNTNTKHAGYAMLSTMLIDKFKATGDIRMFYYAKPAKAKLNEGVTADSWDAYIGTDPSLPFEQIEKAYATEQYSGFNARYTDYPSGEPVVRLGYAEQNFILAEAAVRGWISGDASAYYKKAIRAHMEFIASNTPDEEVYHHGHPITEEAIAAFLETPAIQLSGEKEEDIEKILTQRYLASFMQHPYDVYYDYRRTGYPVLPINPATNRNTMNDRLPMRWMYPKSESDYNLEHQNEALERQFGGVDDVNKLMWILQ
# How the values were obtained:
# Assay in all cases: glycan array binding signal (z-score within array); higher = stronger binding
# Details in all cases: glycan notation: IUPAC condensed, linker removed
# [1] = biological target: Gal(b1-4)GlcNAc(b1-3)Gal(b1-4)GlcNAc(b1-6)[Gal(b1-3)]GalNAc
# Procedure, shortened: (§1)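 Glycan array binding is given as a within-array Z-score, which can be read as non-binding when negative. The arrays, 3228 of them, came from the Consortium for Functional Glycomics database and were retained only where the protein sequence was available. Z-scores were averaged across arrays of the same protein sequence at different concentrations or buffers and across linkers.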
# [2] = biological target: Gal(b1-4)GlcNAc(b1-3)Gal(b1-4)[Fuc(a1-3)]GlcNAc(b1-3)Gal(b1-4)[Fuc(a1-3)]GlcNAc
# Procedure, shortened: as §1
# [3] = biological target: Gal(b1-4)GlcNAc(b1-3)GalNAc
# Procedure, shortened: as §1
# [4] = biological target: Gal(b1-4)GlcNAc(b1-3)[Fuc(a1-3)GlcNAc(b1-6)]Gal(b1-4)Glc
# Procedure, shortened: as §1
# [5] = biological target: Gal(b1-4)GlcNAc(b1-3)[Gal(b1-4)GlcNAc(b1-6)]Gal(b1-4)GlcNAc
# Procedure, shortened: as §1
# [6] = biological target: Gal(b1-4)GlcNAc(b1-3)[GlcNAc(b1-6)]Gal(b1-4)GlcNAc
# Procedure, shortened: as §1
# [7] = biological target: Gal(b1-4)GlcNAc(b1-6)Gal(b1-4)GlcNAc
# Procedure, shortened: as §1
# [8] = biological target: Gal(b1-4)GlcNAc(b1-6)GalNAc
# Procedure, shortened: as §1
# [9] = biological target: Gal(b1-4)GlcNAc(b1-6)[Gal(b1-3)]GalNAc
# Procedure, shortened: as §1
# [10] = biological target: Gal(b1-4)GlcNAc(b1-6)[Gal(b1-4)GlcNAc(b1-3)]GalNAc
# Procedure, shortened: as §1
# [11] = biological target: Gal(b1-4)GlcNAc6P
# Procedure, shortened: as §1
# [12] = biological target: Gal(b1-6)Gal
# Procedure, shortened: as §1
# [13] = biological target: Gal3S(b1-3)GalNAc
# Procedure, shortened: as §1
# [14] = biological target: Gal3S(b1-3)GlcNAc
# Procedure, shortened: as §1
# [15] = biological target: Gal3S(b1-3)[Fuc(a1-4)]GlcNAc
# Procedure, shortened: as §1
# [16] = biological target: Gal3S(b1-4)Glc
# Procedure, shortened: as §1
# [17] = biological target: Gal3S(b1-4)Glc6S
# Procedure, shortened: as §1
# [18] = biological target: Gal3S(b1-4)GlcNAc
# Procedure, shortened: as §1
# [19] = biological target: Gal3S(b1-4)[Fuc(a1-3)]Glc6S
# Procedure, shortened: as §1
# [20] = biological target: Gal3S(b1-4)[Fuc(a1-3)]GlcNAc
# Procedure, shortened: as §1
# [21] = biological target: Gal3S(b1-4)[Fuc(a1-3)]GlcNAc6S
# Procedure, shortened: as §1
# [22] = biological target: Gal3S4S(b1-4)GlcNAc
# Procedure, shortened: as §1
# [23] = biological target: Gal3S6S(b1-4)GlcNAc
# Procedure, shortened: as §1
# [24] = biological target: Gal3S6S(b1-4)GlcNAc6S
# Procedure, shortened: as §1
# [25] = biological target: Gal4S(b1-4)GlcNAc
# Procedure, shortened: as §1
# [26] = biological target: Gal4S6S(b1-4)GlcNAc
# Procedure, shortened: as §1
# [27] = biological target: Gal6P(b1-4)GlcNAc
# Procedure, shortened: as §1
# [28] = biological target: Gal6S(b1-3)GlcNAc
# Procedure, shortened: as §1
# [29] = biological target: Gal6S(b1-3)GlcNAc6S
# Procedure, shortened: as §1
# [30] = biological target: Gal6S(b1-4)Glc
# Procedure, shortened: as §1
# [31] = biological target: Gal6S(b1-4)Glc6S
# Procedure, shortened: as §1
# [32] = biological target: Gal6S(b1-4)GlcNAc
# Procedure, shortened: as §1
# [33] = biological target: Gal6S(b1-4)GlcNAc6S
# Procedure, shortened: as §1
# [34] = biological target: GalNAc(a1-3)Gal
# Procedure, shortened: as §1
# [35] = biological target: GalNAc(a1-3)GalNAc
# Procedure, shortened: as §1
# [36] = biological target: GalNAc(a1-3)GalNAc(b1-3)Gal(a1-4)Gal(b1-4)Glc
# Procedure, shortened: as §1
# [37] = biological target: GalNAc(a1-3)GalNAc(b1-3)Gal(a1-4)Gal(b1-4)GlcNAc
# Procedure, shortened: as §1
binder,measurement,setting,value
B1,glycan array binding signal (z-score),[1],0.824
same,glycan array binding signal (z-score),[2],1.29
same,glycan array binding signal (z-score),[3],-0.443
same,glycan array binding signal (z-score),[4],-0.29
same,glycan array binding signal (z-score),[5],-0.844
same,glycan array binding signal (z-score),[6],0.009
same,glycan array binding signal (z-score),[7],-0.133
same,glycan array binding signal (z-score),[8],1.51
same,glycan array binding signal (z-score),[9],1.48
same,glycan array binding signal (z-score),[10],1.86
same,glycan array binding signal (z-score),[11],-0.826
same,glycan array binding signal (z-score),[12],1.39
same,glycan array binding signal (z-score),[13],-0.369
same,glycan array binding signal (z-score),[14],-0.195
same,glycan array binding signal (z-score),[15],-0.435
same,glycan array binding signal (z-score),[16],0.262
same,glycan array binding signal (z-score),[17],-0.407
same,glycan array binding signal (z-score),[18],-0.442
same,glycan array binding signal (z-score),[19],2.22
same,glycan array binding signal (z-score),[20],-0.452
same,glycan array binding signal (z-score),[21],-0.655
same,glycan array binding signal (z-score),[22],-0.454
same,glycan array binding signal (z-score),[23],-0.474
same,glycan array binding signal (z-score),[24],0.103
same,glycan array binding signal (z-score),[25],-0.273
same,glycan array binding signal (z-score),[26],-0.52
same,glycan array binding signal (z-score),[27],-0.613
same,glycan array binding signal (z-score),[28],1.3
same,glycan array binding signal (z-score),[29],-0.674
same,glycan array binding signal (z-score),[30],0.737
same,glycan array binding signal (z-score),[31],-0.275
same,glycan array binding signal (z-score),[32],0.284
same,glycan array binding signal (z-score),[33],0.089
same,glycan array binding signal (z-score),[34],-0.045
same,glycan array binding signal (z-score),[35],-0.209
same,glycan array binding signal (z-score),[36],-0.779
same,glycan array binding signal (z-score),[37],0.111

# Quoted at random: 2 records from the list, in no set order.
binder,measurement,setting,value
B1,glycan array binding signal (z-score),[21],-0.655
same,glycan array binding signal (z-score),[34],-0.045
